In US11000635B2, “Antimicrobial compositions comprising minocycline and oxidized cellulose” (priority 2017, dated 2021):
“Also recorded” adds a separate entry of the source. At least one structure is not confirmed: it was looked up by name or label, or the drawing left a doubt.

What was measured:
[1] = system: Staphylococcus aureus (S. aureus), Strain #6538; test: Secondary stage: antibiotic alone or blank ORC extracted in antibiotic, bacterial growth curves (ET50); assay type: cell-based; conditions: for Effect of addition of ORC on the antibiotic activity: antibiotic solution with versus without ORC
Method: Blank ORC pads i.e. ORC pads which had not been impregnated with antibiotic (referred to herein as “blank ORC pads”), were subjected to extraction in a solution of antibiotic in PBS for three hours at ambient temperature.
Due to the acidity of ORC, which provides some antibiotic effect, the size of the pad used was small i.e. approximately 1×1.5 inch, weighing between 65-75 mg (70 mg on average) in order to prevent the ORC from affecting the final pH of the assay and therefore the growth of the bacteria.
15 ml tubes, each containing 3 ml of an antibiotic solution at a known concentration in sterile PBS, were prepared in duplicate.
Blank ORC pads were subjected to extraction in the antibiotic solution by immersing the ORC pads in the antibiotic solution for 3-5 hours at ambient temperature on a roller mixer (Stuart, Cat #SRT9D).
Blank ORC extracted in antibiotic and blank ORC extracts, prepared as described above, were diluted 10 folds in MHBII in sterile 15 ml capped tubes.
Columns 3 to 6, rows B to F, were filled with the Blank ORC extracted in antibiotic at decreasing concentrations 1 to 5, diluted 10 folds in MHBII. Each sample tested was placed in 4 well repeats for statistical results.
Columns 7 to 10, rows B to F, were filled with the antibiotic solution (AB) at decreasing concentrations 1 to 5, diluted 10 folds in MHBII. […]
The plate was incubated at 37° C. with shaking in the ELISA reader and the optical density at 600 nm was read every 20 minutes for a total of 18 hours.
The average and standard deviation for OD readings was calculated for each time point of the wells using Excel. […]
The average values were also entered into the GraphPad Prism program (GraphPad Software Inc., CA, USA) in order to calculate the Effective Time 50 (ET50) i.e. the time, in minutes, required for the antibiotic to induce a response halfway between the baseline and maximum, where the maximum is the bacterial growth in MHBII with PBS. This provides a quantifiable measure of the efficacy of the antibiotics tested and enables comparison of the various samples tested. […]

[2] = system: wound bacterial burden; test: Rat wound model of antimicrobial activity of antibiotic-impregnated ORC pads; assay type: in vivo, Sprague-Dawley rats; conditions: antibiotic-impregnated ORC pads on rat skin wound, 24 hours, versus ORC pads alone or antibiotic solutions in PBS

SMILES	Effect of addition of ORC on the antibiotic activity [1]	Effectiveness in preventing wound contamination such as SSI [2]	MIC with ORC relative to MIC without the ORC (times) ([1]; ORC added to growth medium)
CN(C)[C@@H]1C(O)=C(C(N)=O)C(=O)[C@@]2(O)C(O)=C3C(=O)c4c(O)cccc4[C@@](C)(O)[C@H]3C[C@@H]12 [Tetracycline]	no effect on the antibiotic activity; also recorded: no change in the presence of ORC and no change in MIC	–	–
CN(C)c1ccc(O)c2c1C[C@H]1C[C@H]3[C@H](N(C)C)C(O)=C(C(N)=O)C(=O)[C@@]3(O)C(O)=C1C2=O [Minocycline, minocycline]	strong synergistic effect; also recorded: MIC was reduced when mixed with ORC	more effective in preventing wound contamination	about five
